Patent US7365078B2, “Triaza-cyclopenta[cd]indene derivatives” (Taisho Pharmaceutical Co., Ltd., priority 2004, dated 2008)
Some of these results come from one statement about several compounds together.

Biological target: T1, CRF receptors (monkey amygdala membranes) (Macaca mulatta, UniProt Q76LL8)
T1 sequence (Q76LL8 24-415): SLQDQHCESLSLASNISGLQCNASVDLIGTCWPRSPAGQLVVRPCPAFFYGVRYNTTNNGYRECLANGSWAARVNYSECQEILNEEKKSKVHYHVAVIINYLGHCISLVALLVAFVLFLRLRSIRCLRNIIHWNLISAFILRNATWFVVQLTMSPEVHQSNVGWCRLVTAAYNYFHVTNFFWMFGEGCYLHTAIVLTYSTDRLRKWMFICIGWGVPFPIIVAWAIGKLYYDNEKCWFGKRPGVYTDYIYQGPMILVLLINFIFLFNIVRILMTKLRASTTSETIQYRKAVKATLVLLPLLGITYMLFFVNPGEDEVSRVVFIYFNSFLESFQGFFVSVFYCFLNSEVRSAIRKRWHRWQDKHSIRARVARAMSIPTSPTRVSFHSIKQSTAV
Test: CRF receptor binding test (125I-CRF)
Conditions: read-out: IC50 (concentration of the test drug at which binding of 125I-CRF is inhibited by 50%), 0.2 nM 125I-CRF, 25° C. for 2 hours

Q: Which IC50 does the source give for `CCCC(CCC)n1c(=N)c2cc(-c3ccc(Cl)cc3Cl)c3nc(C)cc1n32` [1-001] here?
A: Its IC50 is ≤ 0.1 µM.

Q: `CCCC(CCC)n1c(=N)c2cc(-c3c(C)cc(C)cc3C)c3nc(C)cc1n32` [1-002] was tested. Which IC50 did it give?
A: Its IC50 is ≤ 0.1 µM.

Q: Which IC50 does the source give for `CCCC(CCC)n1c(=N)c2cc(-c3c(C)cc(Br)cc3C)c3nc(C)cc1n32` [1-003] here?
A: Its IC50 is ≤ 0.1 µM.

Q: With `CCCC(CCC)n1c(=NC)c2cc(-c3c(C)cc(Br)cc3C)c3nc(C)cc1n32` [1-008] as the molecule, how does the IC50 read?
A: The IC50 was ≤ 0.1 µM.

Q: Which IC50 does the source give for `CCCC(CCC)n1c(=NC)c2cc(-c3c(C)cc(Cl)cc3C)c3nc(C)cc1n32` [1-009] here?
A: The IC50 was ≤ 0.1 µM.
